# In PubChem BioAssay (NCATS):
# Several values for one entry are separate records, joined by “and”; a condition that tells them apart may be missing. Identical values can stand only once. This is one part of the list. Shown are side measurements of this screen, not its main read-out; they come without a call. Compounds called inactive in the main read-out are mostly missing here. The note in brackets gives the kind of curve behind each potency; many fits are weak.
# Test: qHTS assay for small molecule antagonists of peroxisome proliferator-activated receptor gamma signaling (AID 588537)
# Settings: HEK293 PPARg-UAS-bla, beta-lactamase ratio, antagonist mode; measured here: W460 blue channel
# Method in brief: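 Compounds are tested as concentration series for inhibition of rosiglitazone-driven (50 nM) reporter expression in GeneBLAzer PPAR-gamma-UAS-bla HEK293 cells. After 16 h at 37 C, CCF4 substrate is added for 2 h at room temperature and blue/green fluorescence is measured.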
row,Structure (SMILES),AC50
1,BrCCc1ccccc1,"50.1 µM [rising, single point]"
2,CC1(C(=O)Nc2ccc(O)c(Cl)c2Cl)CCCCC1,"0.0112 µM [falling, full curve, poor fit]"
3,CC(C)(C#N)N=NC(C)(C)C#N,"0.0708 µM [falling, full curve, poor fit]"
4,CC(C)(C)OOC(C)(C)C,"50.1 µM [rising, single point]"
5,O=[N+]([O-])c1c(Cl)c(Cl)cc(Cl)c1Cl,"39.8 µM [falling, partial curve, poor fit]"
6,Clc1ccc(C(Cl)(Cl)Cl)cc1,"0.0355 µM [falling, full curve, poor fit]"
7,Cc1ccccc1O,"0.002 µM [falling, full curve, poor fit]"
8,CN(C)[C@@H]1C(=O)C(C(N)=O)=C(O)[C@@]2(O)C(=O)C3=C(O)c4c(O)cccc4[C@@](C)(O)[C@H]3[C@H](O)[C@@H]12,"44.7 µM [rising, single point]"
9,O=NN(CCO)CCO,"50.1 µM [rising, single point]"
10,ClC(Cl)c1ccccc1,"70.8 µM [rising, single point]"
11,CC1(C)[C@H](C(=O)O[C@H](C#N)c2cccc(Oc3ccccc3)c2)[C@@H]1/C=C(\Cl)C(F)(F)F,"44.7 µM [falling, partial curve, poor fit]"
12,O=[N+]([O-])CCO,"50.1 µM [rising, single point]"
13,CCOP(=S)(OCC)Oc1ncn(-c2ccccc2)n1,"0.00126 µM [falling, full curve, poor fit]"
14,Nc1ccc([N+](=O)[O-])cc1O,"15.8 µM [falling, single point] and 56.2 µM [falling, partial curve, poor fit]"
15,CC(C)N1C(=O)c2ccccc2NS1(=O)=O,"0.00126 µM [falling, full curve, poor fit]"
16,O=C(Cl)C(Cl)(Cl)Cl,"0.000891 µM [falling, full curve, poor fit]"
17,CC(O)CCl (stereo not given),"0.00282 µM [falling, full curve, poor fit]"
18,CCOP(=S)(OCC)SCSC(C)(C)C,"70.8 µM [rising, single point]"

row,Structure (SMILES),AC50
1,CC=O,"44.7 µM [rising, single point]"
2,O=C1NCCN1Cc1ccc(Cl)nc1,"0.0316 µM [falling, full curve, poor fit]"
3,O=[N+]([O-])c1cccc2c([N+](=O)[O-])cccc12,"35.5 µM [rising, partial curve, poor fit]"
4,C=CCC1=C(C)[C@@H](OC(=O)[C@@H]2[C@@H](C=C(C)C)C2(C)C)CC1=O,"0.00126 µM [falling, full curve, poor fit]"
5,ClCCCCl,"50.1 µM [rising, single point]"
6,CC(=O)/C=C/c1ccccc1,"50.1 µM [rising, single point]"
7,O=C1c2ccccc2C(=O)C1C(=O)C(c1ccccc1)c1ccc(Cl)cc1 (stereo not given),"50.1 µM [falling, single point]"
8,Cc1ccc(N)cc1N,"0.0891 µM [rising, full curve, poor fit]"
9,O=Cc1ccc2c(c1)OCO2,"50.1 µM [rising, single point]"
10,CN(C)N=O,"50.1 µM [rising, single point]"
11,ClC1C(Cl)C(Cl)C(Cl)C(Cl)C1Cl (stereo not given),"8.91 nM [falling, full curve, poor fit] and 25.1 µM [falling, full curve, poor fit] and 3.98 nM [falling, full curve, poor fit]"
12,O=[N+]([O-])c1ccccc1-c1ccccc1,"50.1 µM [rising, single point]"
13,COC(C)(C)CCC[C@H](C)C/C=C/C(C)=C/C(=O)OC(C)C,"44.7 µM [falling, partial curve, poor fit]"
14,Cc1ccc(C)c2ccccc12,"0.00251 µM [falling, full curve, poor fit]"
15,O=[N+]([O-])c1cccc2ccccc12,"63.1 µM [rising, single point]"
16,Cc1cccc(C)c1N,"50.1 µM [rising, single point]"
17,Nc1ccc2ccccc2c1,"20 µM [falling, partial curve, poor fit]"
